These are yes or no findings as the source states them, for the method shown. Binding seen in cells or lysates may run through a third protein. Some results given as binding are weak or reduced against the parent protein; the word gives no strength. Where a sequence is shown, tags or fusion partners need not be part of it.
T1: 3×FLAG-FAM161A (full-length) (human) (UniProt Q3B820)
T1 sequence: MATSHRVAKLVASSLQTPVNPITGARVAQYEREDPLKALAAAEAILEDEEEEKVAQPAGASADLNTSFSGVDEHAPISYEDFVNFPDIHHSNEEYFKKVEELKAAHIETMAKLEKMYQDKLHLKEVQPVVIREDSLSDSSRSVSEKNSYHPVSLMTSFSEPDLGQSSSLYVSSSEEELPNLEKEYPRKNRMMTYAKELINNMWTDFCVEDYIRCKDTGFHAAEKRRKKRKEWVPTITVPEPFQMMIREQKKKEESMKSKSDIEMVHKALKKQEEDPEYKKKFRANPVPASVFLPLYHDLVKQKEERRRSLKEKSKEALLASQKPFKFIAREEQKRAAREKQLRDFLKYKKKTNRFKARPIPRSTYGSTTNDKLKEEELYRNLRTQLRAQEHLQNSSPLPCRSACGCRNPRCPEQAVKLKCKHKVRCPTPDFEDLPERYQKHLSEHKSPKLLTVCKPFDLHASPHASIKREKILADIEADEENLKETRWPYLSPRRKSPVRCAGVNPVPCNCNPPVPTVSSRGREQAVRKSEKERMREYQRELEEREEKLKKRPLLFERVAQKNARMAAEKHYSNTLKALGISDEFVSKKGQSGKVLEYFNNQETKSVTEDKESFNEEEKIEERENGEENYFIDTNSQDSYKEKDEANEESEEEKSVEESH

T2: 3×HA-POC1B-p.Arg106Pro (human) (UniProt Q8TC44)
T2 sequence: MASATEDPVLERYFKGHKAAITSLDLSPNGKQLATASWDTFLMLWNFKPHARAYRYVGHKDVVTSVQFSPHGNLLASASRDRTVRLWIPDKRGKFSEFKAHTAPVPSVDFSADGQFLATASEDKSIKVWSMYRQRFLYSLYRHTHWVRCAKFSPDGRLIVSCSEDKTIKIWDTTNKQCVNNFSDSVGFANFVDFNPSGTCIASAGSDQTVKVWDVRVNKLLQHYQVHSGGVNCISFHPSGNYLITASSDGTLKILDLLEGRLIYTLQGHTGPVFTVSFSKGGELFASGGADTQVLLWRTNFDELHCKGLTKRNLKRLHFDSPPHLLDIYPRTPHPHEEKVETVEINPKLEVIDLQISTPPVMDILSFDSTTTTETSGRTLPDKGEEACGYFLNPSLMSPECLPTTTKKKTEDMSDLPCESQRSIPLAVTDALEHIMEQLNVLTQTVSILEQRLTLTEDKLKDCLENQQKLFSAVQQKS

T3: 3×HA-POC1B-p.Gln67del (human) (UniProt Q8TC44)
T3 sequence: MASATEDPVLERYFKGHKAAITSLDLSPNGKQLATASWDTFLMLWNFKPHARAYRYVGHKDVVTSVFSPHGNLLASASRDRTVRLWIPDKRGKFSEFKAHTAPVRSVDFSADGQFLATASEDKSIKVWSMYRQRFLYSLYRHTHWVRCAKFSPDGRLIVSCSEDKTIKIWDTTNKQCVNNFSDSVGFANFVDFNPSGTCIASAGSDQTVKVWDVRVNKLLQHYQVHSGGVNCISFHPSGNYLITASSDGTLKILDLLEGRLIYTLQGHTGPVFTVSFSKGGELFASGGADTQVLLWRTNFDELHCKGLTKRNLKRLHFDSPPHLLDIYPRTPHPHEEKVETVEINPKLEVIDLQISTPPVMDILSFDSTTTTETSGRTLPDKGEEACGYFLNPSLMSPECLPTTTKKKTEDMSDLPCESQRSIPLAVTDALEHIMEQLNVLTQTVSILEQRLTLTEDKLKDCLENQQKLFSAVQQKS

T4: 3×HA-POC1B wild-type (full-length, 478 amino acids) (human) (UniProt Q8TC44)
T4 sequence: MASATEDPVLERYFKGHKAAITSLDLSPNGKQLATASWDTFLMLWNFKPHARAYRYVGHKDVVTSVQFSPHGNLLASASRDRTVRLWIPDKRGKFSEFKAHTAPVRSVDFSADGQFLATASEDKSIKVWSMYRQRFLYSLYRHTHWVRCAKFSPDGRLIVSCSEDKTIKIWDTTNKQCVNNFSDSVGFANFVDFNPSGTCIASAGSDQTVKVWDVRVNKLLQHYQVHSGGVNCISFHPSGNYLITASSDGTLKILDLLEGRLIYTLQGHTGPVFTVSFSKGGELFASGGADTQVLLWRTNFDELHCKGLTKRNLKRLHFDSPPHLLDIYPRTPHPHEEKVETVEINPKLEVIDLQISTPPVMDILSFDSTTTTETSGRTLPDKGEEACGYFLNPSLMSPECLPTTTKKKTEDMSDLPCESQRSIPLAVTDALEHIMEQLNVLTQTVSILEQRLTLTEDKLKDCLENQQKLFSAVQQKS


Key:
[1] = biological target: T1, 3×FLAG-FAM161A (full-length) (human); experiment: co-IP; HEK293T cells, cosynthesis for 48 hr; lysis in 50 mM Tris-HCl pH 7.5, 150 mM NaCl, 0.5% Triton X-100; anti-FLAG M2 agarose, 5 hr at 4°C; immunoblot with anti-HA or anti-FLAG
[2] = biological target: T2, 3×HA-POC1B-p.Arg106Pro (human); experiment: co-IP; reciprocal: HEK293T cells, cosynthesis for 48 hr; lysis in 50 mM Tris-HCl pH 7.5, 150 mM NaCl, 0.5% Triton X-100; anti-HA affinity matrix, 5 hr at 4°C; immunoblot with anti-HA or anti-FLAG
[3] = biological target: T3, 3×HA-POC1B-p.Gln67del (human); experiment: as above
[4] = biological target: T4, 3×HA-POC1B wild-type (full-length, 478 amino acids) (human); experiment: as above

| Binder | binding [1] | binding [2] | binding [3] | binding [4] |
| --- | --- | --- | --- | --- |
| 3×HA-POC1B wild-type (full-length, 478 amino acids) (protein, UniProt Q8TC44-1 1-478) MASATEDPVLERYFKGHKAAITSLDLSPNGKQLATASWDTFLMLWNFKPHARAYRYVGHKDVVTSVQFSPHGNLLASASRDRTVRLWIPDKRGKFSEFKAHTAPVRSVDFSADGQFLATASEDKSIKVWSMYRQRFLYSLYRHTHWVRCAKFSPDGRLIVSCSEDKTIKIWDTTNKQCVNNFSDSVGFANFVDFNPSGTCIASAGSDQTVKVWDVRVNKLLQHYQVHSGGVNCISFHPSGNYLITASSDGTLKILDLLEGRLIYTLQGHTGPVFTVSFSKGGELFASGGADTQVLLWRTNFDELHCKGLTKRNLKRLHFDSPPHLLDIYPRTPHPHEEKVETVEINPKLEVIDLQISTPPVMDILSFDSTTTTETSGRTLPDKGEEACGYFLNPSLMSPECLPTTTKKKTEDMSDLPCESQRSIPLAVTDALEHIMEQLNVLTQTVSILEQRLTLTEDKLKDCLENQQKLFSAVQQKS | binds | – | – | – |
| 3×HA-POC1B-p.Gln67del (protein, UniProt Q8TC44-1 1-478) MASATEDPVLERYFKGHKAAITSLDLSPNGKQLATASWDTFLMLWNFKPHARAYRYVGHKDVVTSVFSPHGNLLASASRDRTVRLWIPDKRGKFSEFKAHTAPVRSVDFSADGQFLATASEDKSIKVWSMYRQRFLYSLYRHTHWVRCAKFSPDGRLIVSCSEDKTIKIWDTTNKQCVNNFSDSVGFANFVDFNPSGTCIASAGSDQTVKVWDVRVNKLLQHYQVHSGGVNCISFHPSGNYLITASSDGTLKILDLLEGRLIYTLQGHTGPVFTVSFSKGGELFASGGADTQVLLWRTNFDELHCKGLTKRNLKRLHFDSPPHLLDIYPRTPHPHEEKVETVEINPKLEVIDLQISTPPVMDILSFDSTTTTETSGRTLPDKGEEACGYFLNPSLMSPECLPTTTKKKTEDMSDLPCESQRSIPLAVTDALEHIMEQLNVLTQTVSILEQRLTLTEDKLKDCLENQQKLFSAVQQKS | binds | – | – | – |
| 3×HA-POC1B-p.Arg106Pro (protein, UniProt Q8TC44-1 1-478) MASATEDPVLERYFKGHKAAITSLDLSPNGKQLATASWDTFLMLWNFKPHARAYRYVGHKDVVTSVQFSPHGNLLASASRDRTVRLWIPDKRGKFSEFKAHTAPVPSVDFSADGQFLATASEDKSIKVWSMYRQRFLYSLYRHTHWVRCAKFSPDGRLIVSCSEDKTIKIWDTTNKQCVNNFSDSVGFANFVDFNPSGTCIASAGSDQTVKVWDVRVNKLLQHYQVHSGGVNCISFHPSGNYLITASSDGTLKILDLLEGRLIYTLQGHTGPVFTVSFSKGGELFASGGADTQVLLWRTNFDELHCKGLTKRNLKRLHFDSPPHLLDIYPRTPHPHEEKVETVEINPKLEVIDLQISTPPVMDILSFDSTTTTETSGRTLPDKGEEACGYFLNPSLMSPECLPTTTKKKTEDMSDLPCESQRSIPLAVTDALEHIMEQLNVLTQTVSILEQRLTLTEDKLKDCLENQQKLFSAVQQKS | binds | – | – | – |
| 3×FLAG-FAM161A (full-length) (protein, UniProt Q3B820 1-660) MATSHRVAKLVASSLQTPVNPITGARVAQYEREDPLKALAAAEAILEDEEEEKVAQPAGASADLNTSFSGVDEHAPISYEDFVNFPDIHHSNEEYFKKVEELKAAHIETMAKLEKMYQDKLHLKEVQPVVIREDSLSDSSRSVSEKNSYHPVSLMTSFSEPDLGQSSSLYVSSSEEELPNLEKEYPRKNRMMTYAKELINNMWTDFCVEDYIRCKDTGFHAAEKRRKKRKEWVPTITVPEPFQMMIREQKKKEESMKSKSDIEMVHKALKKQEEDPEYKKKFRANPVPASVFLPLYHDLVKQKEERRRSLKEKSKEALLASQKPFKFIAREEQKRAAREKQLRDFLKYKKKTNRFKARPIPRSTYGSTTNDKLKEEELYRNLRTQLRAQEHLQNSSPLPCRSACGCRNPRCPEQAVKLKCKHKVRCPTPDFEDLPERYQKHLSEHKSPKLLTVCKPFDLHASPHASIKREKILADIEADEENLKETRWPYLSPRRKSPVRCAGVNPVPCNCNPPVPTVSSRGREQAVRKSEKERMREYQRELEEREEKLKKRPLLFERVAQKNARMAAEKHYSNTLKALGISDEFVSKKGQSGKVLEYFNNQETKSVTEDKESFNEEEKIEERENGEENYFIDTNSQDSYKEKDEANEESEEEKSVEESH | – | binds | binds | binds |
| lebercilin (encoded by LCA5) (protein, UniProt Q86VQ0 1-697) MGERAGSPGTDQERKAGKHHYSYLSDFETPQSSGRSSLVSSSPASVRRKNPKRQTSDGQVHHQAPRKPSPKGLPNRKGVRVGFRSQSLNREPLRKDTDLVTKRILSARLLKINELQNEVSELQVKLAELLKENKSLKRLQYRQEKALNKFEDAENEISQLIFRHNNEITALKERLRKSQEKERATEKRVKDTESELFRTKFSLQKLKEISEARHLPERDDLAKKLVSAELKLDDTERRIKELSKNLELSTNSFQRQLLAERKRAYEAHDENKVLQKEVQRLYHKLKEKERELDIKNIYSNRLPKSSPNKEKELALRKNAACQSDFADLCTKGVQTMEDFKPEEYPLTPETIMCYENKWEEPGHLTLDLQSQKQDRHGEAGILNPIMEREEKFVTDEELHVVKQEVEKLEDEWEREELDKKQKEKASLLEREEKPEWETGRYQLGMYPIQNMDKLQGEEEERLKREMLLAKLNEIDRELQDSRNLKYPVLPLLPDFESKLHSPERSPKTYRFSESSERLFNGHHLQDISFSTPKGEGQNSGNVRSPASPNEFAFGSYVPSFAKTSERSNPFSQKSSFLDFQRNSMEKLSKDGVDLITRKEKKANLMEQLFGASGSSTISSKSSDPNSVASSKGDIDPLNFLPGNKGSRDQEHDEDEGFFLSEGRSFNPNRHRLKHADDKPAVKAADSVEDEIEEVALR | binds | – | – | – |

Reference: paper PMC4129401
